{"source": "the supplement of paper PMC8728848", "experiment_in_all_cases": "glycan array binding signal (z-score within array); higher = stronger binding", "settings_in_all_cases": "glycan notation: IUPAC condensed, linker removed", "key": {"[1]": {"biological_target": "Neu5Ac(a2-3)Gal(b1-3)[Neu5Ac(a2-6)]GlcNAc(b1-3)[Fuc(a1-3)[Gal(b1-4)]GlcNAc(b1-6)]Gal(b1-4)Glc", "in_short": "(§1)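 Glycan array data were curated from 3228 arrays in the Consortium for Functional Glycomics database and kept only where the protein sequence was available. Glycan names were converted to IUPAC-condensed notation, and columns mapping to the same glycan were averaged. The binding signal is a within-array Z-score, averaged across arrays of the same protein sequence at different concentrations or buffers and across linkers. Negative Z-scores can be read as non-binding.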"}, "[2]": {"biological_target": "Neu5Ac(a2-3)Gal(b1-3)]Neu5Ac(a2-3)Gal(b1-4)]GlcNAc", "in_short": "as §1"}, "Neu5Ac(a2-3)Gal(b1-4)Glc": {"biological_target": "Neu5Ac(a2-3)Gal(b1-4)Glc", "in_short": "as §1"}, "[3]": {"biological_target": "Neu5Ac(a2-3)Gal(b1-4)GlcNAc", "in_short": "as §1"}, "[4]": {"biological_target": "Neu5Ac(a2-3)Gal(b1-4)GlcNAc(b1-2)Man", "in_short": "as §1"}, "[5]": {"biological_target": "Neu5Ac(a2-3)Gal(b1-4)GlcNAc(b1-2)Man(a1-3)[GlcNAc(b1-4)][Neu5Ac(a2-3)Gal(b1-4)GlcNAc(b1-2)Man(a1-6)]Man(b1-4)GlcNAc(b1-4)GlcNAc", "in_short": "as §1"}, "[6]": {"biological_target": "Neu5Ac(a2-3)Gal(b1-4)GlcNAc(b1-2)Man(a1-3)[Neu5Ac(a2-3)Gal(b1-4)GlcNAc(b1-2)Man(a1-6)]Man(b1-4)GlcNAc(b1-4)GlcNAc", "in_short": "as §1"}, "[7]": {"biological_target": "Neu5Ac(a2-3)Gal(b1-4)GlcNAc(b1-2)Man(a1-3)[Neu5Ac(a2-3)Gal(b1-4)GlcNAc(b1-2)Man(a1-6)]Man(b1-4)GlcNAc(b1-4)[Fuc(a1-6)]GlcNAc", "in_short": "as §1"}, "[8]": {"biological_target": "Neu5Ac(a2-3)Gal(b1-4)GlcNAc(b1-2)Man(a1-3)[Neu5Ac(a2-6)Gal(b1-4)GlcNAc(b1-2)Man(a1-6)]Man(b1-4)GlcNAc(b1-4)GlcNAc", "in_short": "as §1"}, "[9]": {"biological_target": "Neu5Ac(a2-3)Gal(b1-4)GlcNAc(b1-2)[Neu5Ac(a2-3)Gal(b1-4)GlcNAc(b1-4)]Man(a1-3)[GlcNAc(b1-4)][Neu5Ac(a2-3)Gal(b1-4)GlcNAc(b1-2)[Neu5Ac(a2-3)Gal(b1-4)GlcNAc(b1-6)]Man(a1-6)]Man(b1-4)GlcNAc(b1-4)GlcNAc", "in_short": "as §1"}, "[10]": {"biological_target": "Neu5Ac(a2-3)Gal(b1-4)GlcNAc(b1-2)[Neu5Ac(a2-3)Gal(b1-4)GlcNAc(b1-4)]Man(a1-3)[GlcNAc(b1-4)][Neu5Ac(a2-3)Gal(b1-4)GlcNAc(b1-4)Man(a1-6)]Man(b1-4)GlcNAc(b1-4)GlcNAc", "in_short": "as §1"}, "[11]": {"biological_target": "Neu5Ac(a2-3)Gal(b1-4)GlcNAc(b1-2)[Neu5Ac(a2-3)Gal(b1-4)GlcNAc(b1-6)]Man(a1-6)[Neu5Ac(a2-3)Gal(b1-4)GlcNAc(b1-2)Man(a1-3)][GlcNAc(b1-4)]Man(b1-4)GlcNAc(b1-4)GlcNAc", "in_short": "as §1"}, "[12]": {"biological_target": "Neu5Ac(a2-3)Gal(b1-4)GlcNAc(b1-3)Gal", "in_short": "as §1"}, "[13]": {"biological_target": "Neu5Ac(a2-3)Gal(b1-4)GlcNAc(b1-3)Gal(b1-3)GlcNAc", "in_short": "as §1"}, "[14]": {"biological_target": "Neu5Ac(a2-3)Gal(b1-4)GlcNAc(b1-3)Gal(b1-4)GlcNAc", "in_short": "as §1"}, "[15]": {"biological_target": "Neu5Ac(a2-3)Gal(b1-4)GlcNAc(b1-3)Gal(b1-4)GlcNAc(b1-2)Man(a1-3)[Neu5Ac(a2-3)Gal(b1-4)GlcNAc(b1-3)Gal(b1-4)GlcNAc(b1-2)Man(a1-6)]Man(b1-4)GlcNAc(b1-4)GlcNAc", "in_short": "as §1"}, "[16]": {"biological_target": "Neu5Ac(a2-3)Gal(b1-4)GlcNAc(b1-3)Gal(b1-4)GlcNAc(b1-3)Gal(b1-4)GlcNAc", "in_short": "as §1"}, "[17]": {"biological_target": "Neu5Ac(a2-3)Gal(b1-4)GlcNAc(b1-3)Gal(b1-4)GlcNAc(b1-3)Gal(b1-4)GlcNAc(b1-2)Man(a1-3)[Neu5Ac(a2-3)Gal(b1-4)GlcNAc(b1-3)Gal(b1-4)GlcNAc(b1-3)Gal(b1-4)GlcNAc(b1-2)Man(a1-6)]GalNAc", "in_short": "as §1"}, "[18]": {"biological_target": "Neu5Ac(a2-3)Gal(b1-4)GlcNAc(b1-3)Gal(b1-4)GlcNAc(b1-3)GalNAc", "in_short": "as §1"}, "[19]": {"biological_target": "Neu5Ac(a2-3)Gal(b1-4)GlcNAc(b1-3)Gal(b1-4)GlcNAc(b1-3)[Neu5Ac(a2-3)Gal(b1-4)GlcNAc(b1-3)Gal(b1-4)GlcNAc(b1-6)]GalNAc", "in_short": "as §1"}, "[20]": {"biological_target": "Neu5Ac(a2-3)Gal(b1-4)GlcNAc(b1-3)Gal(b1-4)GlcNAc(b1-6)[Gal(b1-3)]GalNAc", "in_short": "as §1"}, "[21]": {"biological_target": "Neu5Ac(a2-3)Gal(b1-4)GlcNAc(b1-3)Gal(b1-4)[Fuc(a1-3)]GlcNAc", "in_short": "as §1"}, "[22]": {"biological_target": "Neu5Ac(a2-3)Gal(b1-4)GlcNAc(b1-3)GalNAc", "in_short": "as §1"}, "[23]": {"biological_target": "Neu5Ac(a2-3)Gal(b1-4)GlcNAc(b1-3)[Neu5Ac(a2-3)Gal(b1-4)GlcNAc(b1-6)]GalNAc", "in_short": "as §1"}, "[24]": {"biological_target": "Neu5Ac(a2-3)Gal(b1-4)GlcNAc(b1-6)GalNAc", "in_short": "as §1"}, "[25]": {"biological_target": "Neu5Ac(a2-3)Gal(b1-4)GlcNAc(b1-6)[Gal(b1-3)]GalNAc", "in_short": "as §1"}, "[26]": {"biological_target": "Neu5Ac(a2-3)Gal(b1-4)GlcNAc(b1-6)[Neu5Ac(a2-3)Gal(b1-3)]GalNAc", "in_short": "as §1"}, "[27]": {"biological_target": "Neu5Ac(a2-3)Gal(b1-4)GlcNAc6S", "in_short": "as §1"}, "[28]": {"biological_target": "Neu5Ac(a2-3)Gal(b1-4)[Fuc(a1-3)]GlcNAc", "in_short": "as §1"}, "[29]": {"biological_target": "Neu5Ac(a2-3)Gal(b1-4)[Fuc(a1-3)]GlcNAc(b1-2)Man", "in_short": "as §1"}, "[30]": {"biological_target": "Neu5Ac(a2-3)Gal(b1-4)[Fuc(a1-3)]GlcNAc(b1-3)Gal", "in_short": "as §1"}, "[31]": {"biological_target": "Neu5Ac(a2-3)Gal(b1-4)[Fuc(a1-3)]GlcNAc(b1-3)Gal(b1-4)GlcNAc", "in_short": "as §1"}, "[32]": {"biological_target": "Neu5Ac(a2-3)Gal(b1-4)[Fuc(a1-3)]GlcNAc(b1-3)Gal(b1-4)[Fuc(a1-3)]GlcNAc(b1-3)Gal(b1-4)[Fuc(a1-3)]GlcNAc", "in_short": "as §1"}, "[33]": {"biological_target": "Neu5Ac(a2-3)Gal(b1-4)[Fuc(a1-3)]GlcNAc(b1-3)GalNAc", "in_short": "as §1"}, "[34]": {"biological_target": "Neu5Ac(a2-3)Gal(b1-4)[Fuc(a1-3)]GlcNAc(b1-6)[Gal(b1-3)]GalNAc", "in_short": "as §1"}, "[35]": {"biological_target": "Neu5Ac(a2-3)Gal(b1-4)[Fuc(a1-3)]GlcNAc(b1-6)[Neu5Ac(a2-3)Gal(b1-3)]GalNAc", "in_short": "as §1"}, "[36]": {"biological_target": "Neu5Ac(a2-3)Gal(b1-4)[Fuc(a1-3)]GlcNAc6S", "in_short": "as §1"}, "[37]": {"biological_target": "Neu5Ac(a2-3)Gal6S(b1-4)GlcNAc", "in_short": "as §1"}}, "note": "This is one part of the list.", "data": [{"binder": "Epa2 (Candida glabrata) (protein) MGSSHHHHHHSSGLVPRGSHMASSKDPTSFPMGCSPQVLKTQPGLAVKLYSYGHPVPGCAYNTYQYPDFPRSGYKKERKLADITGVNGRIDIDLKPNDPCRVLSGNLPSNYNYQNTLTYTNFTMILYGYFQPKVTGYHTFNLEADDLLFMNLGAGNAFDCCRAESTLDNFGNYQSYSIWGTDKATADLTVFLVSGIYYPIRLFYVNRDNNAVLDFSFSTEFNKEIIHDFTSYFFSASDEEQCPGNI", "values": [{"measurement": "glycan array binding signal (z-score)", "setting": "[1]", "result": 0.369}, {"measurement": "glycan array binding signal (z-score)", "setting": "[2]", "result": 1.05}, {"measurement": "glycan array binding signal (z-score)", "setting": "Neu5Ac(a2-3)Gal(b1-4)Glc", "result": 0.776}, {"measurement": "glycan array binding signal (z-score)", "setting": "[3]", "result": -0.161}, {"measurement": "glycan array binding signal (z-score)", "setting": "[4]", "result": 3.5}, {"measurement": "glycan array binding signal (z-score)", "setting": "[5]", "result": -1.24}, {"measurement": "glycan array binding signal (z-score)", "setting": "[6]", "result": 0.022}, {"measurement": "glycan array binding signal (z-score)", "setting": "[7]", "result": -0.348}, {"measurement": "glycan array binding signal (z-score)", "setting": "[8]", "result": -0.194}, {"measurement": "glycan array binding signal (z-score)", "setting": "[9]", "result": -0.09}, {"measurement": "glycan array binding signal (z-score)", "setting": "[10]", "result": 0.075}, {"measurement": "glycan array binding signal (z-score)", "setting": "[11]", "result": 0.174}, {"measurement": "glycan array binding signal (z-score)", "setting": "[12]", "result": -0.834}, {"measurement": "glycan array binding signal (z-score)", "setting": "[13]", "result": -0.156}, {"measurement": "glycan array binding signal (z-score)", "setting": "[14]", "result": 0.946}, {"measurement": "glycan array binding signal (z-score)", "setting": "[15]", "result": 0.377}, {"measurement": "glycan array binding signal (z-score)", "setting": "[16]", "result": 0.091}, {"measurement": "glycan array binding signal (z-score)", "setting": "[17]", "result": 2.23}, {"measurement": "glycan array binding signal (z-score)", "setting": "[18]", "result": 0.48}, {"measurement": "glycan array binding signal (z-score)", "setting": "[19]", "result": 0.616}, {"measurement": "glycan array binding signal (z-score)", "setting": "[20]", "result": -1.15}, {"measurement": "glycan array binding signal (z-score)", "setting": "[21]", "result": -0.243}, {"measurement": "glycan array binding signal (z-score)", "setting": "[22]", "result": 0.263}, {"measurement": "glycan array binding signal (z-score)", "setting": "[23]", "result": 3.03}, {"measurement": "glycan array binding signal (z-score)", "setting": "[24]", "result": -0.308}, {"measurement": "glycan array binding signal (z-score)", "setting": "[25]", "result": 0.628}, {"measurement": "glycan array binding signal (z-score)", "setting": "[26]", "result": -1.19}, {"measurement": "glycan array binding signal (z-score)", "setting": "[27]", "result": -0.184}, {"measurement": "glycan array binding signal (z-score)", "setting": "[28]", "result": -0.21}, {"measurement": "glycan array binding signal (z-score)", "setting": "[29]", "result": -0.325}, {"measurement": "glycan array binding signal (z-score)", "setting": "[30]", "result": -0.875}, {"measurement": "glycan array binding signal (z-score)", "setting": "[31]", "result": 0.49}, {"measurement": "glycan array binding signal (z-score)", "setting": "[32]", "result": -0.083}, {"measurement": "glycan array binding signal (z-score)", "setting": "[33]", "result": 1.05}, {"measurement": "glycan array binding signal (z-score)", "setting": "[34]", "result": 0.956}, {"measurement": "glycan array binding signal (z-score)", "setting": "[35]", "result": 0.699}, {"measurement": "glycan array binding signal (z-score)", "setting": "[36]", "result": -0.281}, {"measurement": "glycan array binding signal (z-score)", "setting": "[37]", "result": -0.412}]}]}
